At least one compound was matched to its structure with a doubt left.
Tests used:
[1] = test system: pancreatic stem cell (PanSC); test: Dasatinib withdrawal from hepSC media in pancreatic stem cell (PanSC) culture; format: cell-based, human
[2] = test system: hepSC; test: Dasatinib withdrawal or replacement in hSC media, maintenance of hepSC stem cell state
[3] = Dasatinib removed from the media

## Cc1nc(Nc2ncc(C(=O)Nc3c(C)cccc3Cl)s2)cc(N2CCN(CCO)CC2)n1 [Dasatinib]
[1]; after Dasatinib removal
  expression of stem cell marker SOX9 and proliferation marker KI67: drastic decrease
  proliferation and stem cell state of PanSC: no longer proliferate and maintain the stem cell state
[1]; withdrawal of Dasatinib from hepSC media
  stem cell morphology of PanSC: rapid loss of stem cell morphology
[2]; [3]
  expression of stem cell and cholangiocyte markers: lose expression of stem cell marker HNF4A and start to express cholangiocyte markers CK7, CK19 and SOX9
  stem cell self renewing capacity / passaging: loss of stem cell self renewing capacity and cells cannot be stably passaged
[2]; Dasatinib withdrawn from hSC media
  stem cell state in hepSC: loss of stem cell state in hepSC
[2]; removal of Dasatinib, within 48 hrs
  cell morphology: drastic cell morphology changes
[2]; without Dasatinib, 48 hr after subculturing, in the presence of Rock inhibitors
  survival of the passage: poorly survive the passage
[2]; without Dasatinib, 6 days after withdrawal
  differentiation of cells: completely differentiated

Source: patent publication US12104168B2, “Cell culture medium” (Agency For Science, Technology And Research, priority 2018, dated 2024)
